Measurements reported in the supplement of paper PMC6411743.
± gives the standard deviation of the averaged measurements. This is one part of the list.

Sequences of proteins named here, by UniProt entry; tags and fusion partners are left off. A change or cut given only in a name is not applied to a line headed by its entry.
UniProt Q9Y2S7: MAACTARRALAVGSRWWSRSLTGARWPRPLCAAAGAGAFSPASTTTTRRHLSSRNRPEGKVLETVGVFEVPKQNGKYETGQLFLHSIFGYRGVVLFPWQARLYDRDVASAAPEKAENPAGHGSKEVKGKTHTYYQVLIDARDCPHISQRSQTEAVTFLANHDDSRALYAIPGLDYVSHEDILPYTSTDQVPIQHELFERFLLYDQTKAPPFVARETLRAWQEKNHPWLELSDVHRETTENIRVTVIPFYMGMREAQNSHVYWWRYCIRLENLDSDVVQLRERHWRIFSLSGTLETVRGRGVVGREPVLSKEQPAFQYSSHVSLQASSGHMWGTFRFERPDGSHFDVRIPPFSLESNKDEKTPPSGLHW
UniProt Q86XS8: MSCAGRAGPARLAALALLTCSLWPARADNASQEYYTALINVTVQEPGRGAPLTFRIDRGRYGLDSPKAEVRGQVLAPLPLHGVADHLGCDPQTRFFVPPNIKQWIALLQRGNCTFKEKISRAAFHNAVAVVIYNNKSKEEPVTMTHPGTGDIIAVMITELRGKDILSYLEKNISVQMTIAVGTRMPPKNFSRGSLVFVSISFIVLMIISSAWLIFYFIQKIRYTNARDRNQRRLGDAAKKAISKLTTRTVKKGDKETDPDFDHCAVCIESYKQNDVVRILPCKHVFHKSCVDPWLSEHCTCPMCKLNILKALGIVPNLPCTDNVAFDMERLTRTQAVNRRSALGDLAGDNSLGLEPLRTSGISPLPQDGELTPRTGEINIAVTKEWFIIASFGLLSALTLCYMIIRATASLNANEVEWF
UniProt P52747: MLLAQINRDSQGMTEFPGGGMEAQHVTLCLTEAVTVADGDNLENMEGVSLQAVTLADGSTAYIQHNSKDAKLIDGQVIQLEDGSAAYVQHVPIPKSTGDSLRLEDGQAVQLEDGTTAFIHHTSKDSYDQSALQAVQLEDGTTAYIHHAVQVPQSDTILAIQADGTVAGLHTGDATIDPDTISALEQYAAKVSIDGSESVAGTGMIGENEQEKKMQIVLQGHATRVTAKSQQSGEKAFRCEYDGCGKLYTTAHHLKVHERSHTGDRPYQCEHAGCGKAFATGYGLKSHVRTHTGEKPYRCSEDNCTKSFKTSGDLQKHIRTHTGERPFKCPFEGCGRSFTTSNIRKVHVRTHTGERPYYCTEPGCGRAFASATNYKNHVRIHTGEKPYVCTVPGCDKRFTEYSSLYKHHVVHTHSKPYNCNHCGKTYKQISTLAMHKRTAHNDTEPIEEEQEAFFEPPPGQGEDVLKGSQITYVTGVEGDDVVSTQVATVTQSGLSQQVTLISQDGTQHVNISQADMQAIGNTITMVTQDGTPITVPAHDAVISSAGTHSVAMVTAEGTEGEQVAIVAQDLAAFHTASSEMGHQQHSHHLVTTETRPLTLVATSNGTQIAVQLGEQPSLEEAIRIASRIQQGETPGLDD
UniProt P62304, whole entry: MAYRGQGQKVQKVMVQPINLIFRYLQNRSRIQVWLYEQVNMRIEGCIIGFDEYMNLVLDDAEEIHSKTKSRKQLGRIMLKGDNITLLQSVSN
UniProt P06748, whole entry: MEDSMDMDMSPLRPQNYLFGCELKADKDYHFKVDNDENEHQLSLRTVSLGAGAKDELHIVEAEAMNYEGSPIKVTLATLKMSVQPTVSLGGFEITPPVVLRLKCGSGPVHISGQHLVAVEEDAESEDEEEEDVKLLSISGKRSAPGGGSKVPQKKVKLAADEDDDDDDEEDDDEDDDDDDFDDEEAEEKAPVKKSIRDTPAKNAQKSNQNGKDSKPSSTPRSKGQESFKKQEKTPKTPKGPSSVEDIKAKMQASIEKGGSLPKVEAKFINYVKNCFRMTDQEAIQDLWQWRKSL

Compound: Nc1nc2c(ncn2[C@@H]2O[C@H](COP(=O)(O)OP(=O)(O)OP(=O)(O)O)[C@@H](O)[C@H]2O)c(=O)[nH]1 [guanosine triphosphate]
Assay: NP40-soluble protein abundance relative to vehicle (solubility fold change) (ratio); higher = more soluble protein in presence of GTP
Protocol: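 Solubility proteome profiling in Jurkat crude lysate. Lysate was treated with Mg-GTP (0.1-10 mM) for 10 min at room temperature and 3 min at 37 °C, then solubilised with 0.8% NP40 and benzonase, followed by ultracentrifugation. Proteins were quantified by TMT10 LC-MS/MS; the value is the NP40-soluble abundance relative to the NP40-processed vehicle, from 3 independent experiments.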

Target: B4DEM9 and related entries (UniProt Q9Y2S7)
- NP40-soluble protein abundance (concentration: 0.1mM): 1.01 ± 0.013
- NP40-soluble protein abundance (concentration: 0.5mM): 1.03 ± 0.033
- NP40-soluble protein abundance (concentration: 1mM): 0.921 ± 0.018
- NP40-soluble protein abundance (concentration: 2mM): 0.97 ± 0.042
- NP40-soluble protein abundance (concentration: 4mM): 0.923 ± 0.03
- NP40-soluble protein abundance (concentration: 6mM): 0.946 ± 0.014
- NP40-soluble protein abundance (concentration: 8mM): 0.909 ± 0.045
- NP40-soluble protein abundance (concentration: 10mM): 0.892 ± 0.073

Target: E5RI87 and related entries (UniProt Q86XS8)
- NP40-soluble protein abundance (concentration: 0.1mM): 1.08 ± 0.28
- NP40-soluble protein abundance (concentration: 0.5mM): 1.06 ± 0.099
- NP40-soluble protein abundance (concentration: 1mM): 1.14 ± 0.34
- NP40-soluble protein abundance (concentration: 2mM): 1.05 ± 0.16
- NP40-soluble protein abundance (concentration: 4mM): 1.11 ± 0.37
- NP40-soluble protein abundance (concentration: 6mM): 1.04 ± 0.14
- NP40-soluble protein abundance (concentration: 8mM): 1.17 ± 0.38
- NP40-soluble protein abundance (concentration: 10mM): 0.991 ± 0.043

Target: E7EN86 and related entries (UniProt P52747)
- NP40-soluble protein abundance (concentration: 0.1mM): 1.06 ± 0.038
- NP40-soluble protein abundance (concentration: 0.5mM): 1.03 ± 0.024
- NP40-soluble protein abundance (concentration: 1mM): 0.988 ± 0.058
- NP40-soluble protein abundance (concentration: 2mM): 0.94 ± 0.013
- NP40-soluble protein abundance (concentration: 4mM): 0.988 ± 0.076
- NP40-soluble protein abundance (concentration: 6mM): 0.939 ± 0.055
- NP40-soluble protein abundance (concentration: 8mM): 1.03 ± 0.013
- NP40-soluble protein abundance (concentration: 10mM): 1.02 ± 0.045

Target: A6NHK2 and related entries (UniProt P62304)
- NP40-soluble protein abundance (concentration: 0.1mM): 1.02 ± 0.18
- NP40-soluble protein abundance (concentration: 0.5mM): 0.993 ± 0.14
- NP40-soluble protein abundance (concentration: 1mM): 0.968 ± 0.099
- NP40-soluble protein abundance (concentration: 2mM): 1.04 ± 0.049
- NP40-soluble protein abundance (concentration: 4mM): 1.19 ± 0.18
- NP40-soluble protein abundance (concentration: 6mM): 1.09 ± 0.24
- NP40-soluble protein abundance (concentration: 8mM): 1.033 ± 0.0048
- NP40-soluble protein abundance (concentration: 10mM): 1.094 ± 0.0081

Target: E5RGW4 and related entries (UniProt P06748)
- NP40-soluble protein abundance (concentration: 0.1mM): 0.926 ± 0.018
- NP40-soluble protein abundance (concentration: 0.5mM): 0.926 ± 0.061
- NP40-soluble protein abundance (concentration: 1mM): 1.08 ± 0.02
- NP40-soluble protein abundance (concentration: 2mM): 1.02 ± 0.079
- NP40-soluble protein abundance (concentration: 4mM): 1.08 ± 0.047
- NP40-soluble protein abundance (concentration: 6mM): 1.13 ± 0.062
- NP40-soluble protein abundance (concentration: 8mM): 1.17 ± 0.072
- NP40-soluble protein abundance (concentration: 10mM): 1.22 ± 0.13
